Results are given in words; binding and its absence hold for the method and conditions named. Binding seen in cells or lysates may run through a third protein. Some results given as binding are weak or reduced against the parent protein; the word gives no strength.

Protein sequences, listed by entry. Tags and fused reporters are not part of them. Residues count along the entry.
UniProt P47774, residues 25-378: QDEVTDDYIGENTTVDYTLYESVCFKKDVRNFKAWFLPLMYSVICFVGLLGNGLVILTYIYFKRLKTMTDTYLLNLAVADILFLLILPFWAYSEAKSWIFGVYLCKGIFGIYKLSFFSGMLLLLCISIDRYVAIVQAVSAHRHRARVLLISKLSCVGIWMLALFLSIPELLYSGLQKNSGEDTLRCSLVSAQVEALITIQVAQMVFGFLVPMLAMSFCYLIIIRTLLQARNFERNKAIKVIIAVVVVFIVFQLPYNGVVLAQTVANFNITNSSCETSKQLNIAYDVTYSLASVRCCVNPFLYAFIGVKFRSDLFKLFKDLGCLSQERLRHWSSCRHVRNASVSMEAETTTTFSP
UniProt P70658: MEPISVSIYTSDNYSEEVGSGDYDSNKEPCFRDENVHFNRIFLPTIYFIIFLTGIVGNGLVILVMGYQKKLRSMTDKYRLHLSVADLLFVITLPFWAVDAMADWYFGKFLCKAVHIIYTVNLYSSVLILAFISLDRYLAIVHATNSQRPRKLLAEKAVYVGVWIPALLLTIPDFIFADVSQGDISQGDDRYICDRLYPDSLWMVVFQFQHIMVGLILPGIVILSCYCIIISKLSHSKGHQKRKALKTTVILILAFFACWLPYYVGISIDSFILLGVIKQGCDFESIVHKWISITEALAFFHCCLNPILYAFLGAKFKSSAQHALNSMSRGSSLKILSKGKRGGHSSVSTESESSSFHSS

Data on one substance can be found in publication PMC8538406.

Experiment [1] concerns the target CCR7, mouse, endogenous in MMTV-PyMT primary mammary tumour cells (mouse (endogenous in MMTV-PyMT mammary epithelial cells)) (UniProt P47774). Description: FRET or BRET; FACS-FRET on primary epithelial tumour cells of MMTV-PyMT mice, advanced invasive tumour (~18 weeks). On the technique in general: Bioluminescence resonance energy transfer reports proximity on the nanometre scale.

Experiment [2] shares this target. Description: condition: only in cells from hyperplasia and early tumour stages; FRET or BRET; FACS-FRET on primary epithelial tumour cells of MMTV-PyMT mice, hyperplasia (~8 weeks) and early tumour (~11 weeks).

For “CXCR4, mouse, endogenous in MMTV-PyMT primary mammary tumour cells (from UniProt P70658 1-359) (receptor)”, the binding result is given as “binds” in experiment [1] and “no binding” in experiment [2].
